Data as given in PubChem BioAssay AID1508597 (Cure First, 2020).
This is a random part of the about 2,100 reagents, under one of the conditions tested. 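Calls flag viability under 80% in either arm, not effects specific to rucaparib; the reference for percent is not stated.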 A reagent listed more than once was tested more than once; the source does not tell the runs apart. Not given: the 100% reference.

- Purpose: 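Knock-downs altering ovarian cancer cell survival with or without PARP inhibitor rucaparib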 (primary screen)
- Cells: human ovarian carcinoma lines grown from tumours: OCI-P5x (papillary serous) and OCI-C5x (clear cell)
- Reagent: siRNA pool against human genes, 1.25 pmol siRNA per well
- Duration: 72 h or 96 h, depending on the cell culture
- Challenge: rucaparib 20 µM (about IC30) or vehicle, present until read-out
- Rucaparib or vehicle: Rucaparib
- Cell line: OCI-P5x (serous)
- Measurement: 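ATP luminescence measured at 72 or 96 h according to the culture, then normalised and expressed as percent viability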
- Direction: viability, normalised: higher = more viable cells remaining
- Rule for the call: 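a well counts as a hit if its normalised viability is under 80 percent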
- Calls: active = viability under 80%; inactive = viability 80% or more

| target gene | technical replicate | viability, normalised (%) | outcome |
| --- | --- | --- | --- |
| ZDHHC15 | 1 | 52.8 | active |
| ZDHHC15 | 2 | 63.1 | active |
| ZDHHC15 | 3 | 37.2 | active |
| EPC1 | 1 | 45.4 | active |
| EPC1 | 2 | 45.4 | active |
| EPC1 | 3 | 56.4 | active |
| MRGBP | 1 | 35.5 | active |
| MRGBP | 2 | 41.1 | active |
| MRGBP | 3 | 60.1 | active |
| HDGFL2 | 1 | 63.7 | active |
| HDGFL2 | 2 | 58 | active |
| HDGFL2 | 3 | 72.7 | active |
| PRDM11 | 1 | 42.4 | active |
| PRDM11 | 2 | 45.8 | active |
| PRDM11 | 3 | 37.9 | active |
| CENPE | 1 | 48.9 | active |
| CENPE | 2 | 46 | active |
| CENPE | 3 | 51.9 | active |
| KIF18A | 1 | 49.9 | active |
| KIF18A | 1 | 57.3 | active |
| KIF18A | 2 | 49.1 | active |
| KIF18A | 2 | 78.6 | active |
| KIF18A | 3 | 82.9 | inactive |
| KIF18A | 3 | 47.8 | active |
| EPHA6 | 1 | 86.9 | inactive |
| EPHA6 | 2 | 92.6 | inactive |
| EPHA6 | 3 | 78.5 | active |
| MCL1 | 1 | 42.3 | active |
| MCL1 | 2 | 48.5 | active |
| MCL1 | 3 | 47.2 | active |
| BMP7 | 1 | 81.6 | inactive |
| BMP7 | 2 | 115 | inactive |
| BMP7 | 3 | 77.2 | active |
| PKD2L2 | 1 | 78.5 | active |
| PKD2L2 | 2 | 89.8 | inactive |
| PKD2L2 | 3 | 77.4 | active |
| TREX1 | 1 | 67.1 | active |
| TREX1 | 2 | 93.6 | inactive |
| TREX1 | 3 | 61.1 | active |
| EPHA3 | 1 | 79 | active |
| EPHA3 | 2 | 66.4 | active |
| EPHA3 | 3 | 76.3 | active |
| CLDN17 | 1 | 58.2 | active |
| CLDN17 | 2 | 68.5 | active |
| CLDN17 | 3 | 59.6 | active |
| CERK | 1 | 78 | active |
| CERK | 2 | 89.3 | inactive |
| CERK | 3 | 78.2 | active |
| KDM4D | 1 | 47.5 | active |
| KDM4D | 2 | 44.7 | active |
| KDM4D | 3 | 45.9 | active |
| DDX10 | 1 | 47.6 | active |
| DDX10 | 2 | 45.2 | active |
| DDX10 | 3 | 62.6 | active |
| PIK3R1 | 1 | 56.5 | active |
| PIK3R1 | 2 | 62.6 | active |
| PIK3R1 | 3 | 54.2 | active |
| KDM4A | 1 | 42.6 | active |
| KDM4A | 2 | 37.8 | active |
| KDM4A | 3 | 47.7 | active |
| DDX21 | 1 | 71.7 | active |
| DDX21 | 1 | 52.7 | active |
| DDX21 | 2 | 74.7 | active |
| DDX21 | 2 | 82.3 | inactive |
| DDX21 | 3 | 74.3 | active |
| DDX21 | 3 | 68.6 | active |
| AEBP2 | 1 | 68 | active |
| AEBP2 | 2 | 65.9 | active |
| AEBP2 | 3 | 66.4 | active |
| RBM14 | 1 | 89.9 | inactive |
| RBM14 | 2 | 76.7 | active |
| RBM14 | 3 | 75.4 | active |
| GMEB2 | 1 | 67.5 | active |
| GMEB2 | 2 | 58.7 | active |
| GMEB2 | 3 | 69 | active |

12 neighbouring reagents from above, for reference:
| target gene | technical replicate | viability, normalised (%) | outcome |
| --- | --- | --- | --- |
| PIK3R1 | 1 | 56.5 | active |
| PIK3R1 | 2 | 62.6 | active |
| PIK3R1 | 3 | 54.2 | active |
| KDM4A | 1 | 42.6 | active |
| KDM4A | 2 | 37.8 | active |
| KDM4A | 3 | 47.7 | active |
| DDX21 | 1 | 71.7 | active |
| DDX21 | 1 | 52.7 | active |
| DDX21 | 2 | 74.7 | active |
| DDX21 | 2 | 82.3 | inactive |
| DDX21 | 3 | 74.3 | active |
| DDX21 | 3 | 68.6 | active |
